No constants are given. Whether binding was seen depends on the method and setting. Where a sequence is shown, tags or fusion partners need not be part of it.
Experiments:
Assay in all cases: GST pull-down, electrophoresis and autoradiography
[1] = target: GST fusion of the PDZAN fragment of Drosophila Dvl (Drosophila)
[2] = target: GST fusion of the DC fragment of Drosophila Dvl (Drosophila)
[3] = target: GST fusion of the DN fragment of Drosophila Dvl (Drosophila)

Measured: binding

B1: Myc-tagged mNkd protein, in vitro translated (protein, not shown: small tags and cut ends)
chain: MGKLHSKPAAVCKRRESPEGDSFAVSAAWARKGIEEWIGRQRCPGSVSGPRQLRLAGTVGRGTRELVGDTSREALGEEDEDDFPLEVALPPEKIDSLGSGDEKRMERLSEPGQASKKQLKFEELQCDVSVEEDSRQEWTFTLYDFDNNGKVTREDITSLLHTIYEVVDSSVNHSPTSSKTLRVKLTVAPDGSQSKRSVLFNHTDLQSTRPRADTKPAEELRGWEKKQRAPLRFQGDSHLEQPDCYHHCVDENIERRNHYLDLAGIENYTSQFGPGSPSVAQKSELPPRISNPTRSRSHEPEAAHIPHRRPQGVDPGSFHLLDTPFAKASELQQRLRGTQDGSKHFVRSPKAQGKNMGMGHGARGARSKPPLVPTTHTVSPSAHLATSPALLPTLAPLGHKKHKHRAKESQASCRGLQGPLAAGGSTVMGREQVRELPAVVVYESQAGQAVQRHEHHHHHHEHHHHYHHFYQP
modifications: labelled with 35S-methionine
no binding: [1] | [2] | [3]
